Measured values taken from publication doi:10.1101/2025.10.27.684718.

By UniProt entry, the sequences of proteins in these tests, tags left out. Where a name states a change or a piece, a line headed by the entry shows the natural chain unless it says otherwise.
UniProt Q14654: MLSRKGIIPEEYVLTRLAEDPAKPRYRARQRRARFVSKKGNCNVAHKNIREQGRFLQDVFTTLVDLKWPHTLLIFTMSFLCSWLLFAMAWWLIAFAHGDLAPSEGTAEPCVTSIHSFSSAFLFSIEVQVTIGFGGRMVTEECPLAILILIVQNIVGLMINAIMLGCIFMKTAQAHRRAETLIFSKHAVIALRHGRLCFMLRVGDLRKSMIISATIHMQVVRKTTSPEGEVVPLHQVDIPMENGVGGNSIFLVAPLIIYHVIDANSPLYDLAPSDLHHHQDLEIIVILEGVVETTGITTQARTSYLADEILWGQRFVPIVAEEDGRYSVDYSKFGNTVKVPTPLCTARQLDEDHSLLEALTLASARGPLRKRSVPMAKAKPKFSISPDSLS

Target: maSUR1 (E203K) subunit of the cryo-EM KATP construct (Mesocricetus auratus)
Assay: cryo-EM structure

Substance: hsKir6.2 (Q52E) subunit of the cryo-EM KATP construct (from UniProt Q14654)
- binding: binds

Results are given in words; binding and its absence hold for the method and conditions named. Binding calls can cover weak binding; strength is not graded here.
